The results in this text go back to US20250236683A1.

By UniProt entry, the sequences of proteins in these tests, tags left out. Where a name states a change or a piece, a line headed by the entry shows the natural chain unless it says otherwise.
UniProt Q9Y2J8: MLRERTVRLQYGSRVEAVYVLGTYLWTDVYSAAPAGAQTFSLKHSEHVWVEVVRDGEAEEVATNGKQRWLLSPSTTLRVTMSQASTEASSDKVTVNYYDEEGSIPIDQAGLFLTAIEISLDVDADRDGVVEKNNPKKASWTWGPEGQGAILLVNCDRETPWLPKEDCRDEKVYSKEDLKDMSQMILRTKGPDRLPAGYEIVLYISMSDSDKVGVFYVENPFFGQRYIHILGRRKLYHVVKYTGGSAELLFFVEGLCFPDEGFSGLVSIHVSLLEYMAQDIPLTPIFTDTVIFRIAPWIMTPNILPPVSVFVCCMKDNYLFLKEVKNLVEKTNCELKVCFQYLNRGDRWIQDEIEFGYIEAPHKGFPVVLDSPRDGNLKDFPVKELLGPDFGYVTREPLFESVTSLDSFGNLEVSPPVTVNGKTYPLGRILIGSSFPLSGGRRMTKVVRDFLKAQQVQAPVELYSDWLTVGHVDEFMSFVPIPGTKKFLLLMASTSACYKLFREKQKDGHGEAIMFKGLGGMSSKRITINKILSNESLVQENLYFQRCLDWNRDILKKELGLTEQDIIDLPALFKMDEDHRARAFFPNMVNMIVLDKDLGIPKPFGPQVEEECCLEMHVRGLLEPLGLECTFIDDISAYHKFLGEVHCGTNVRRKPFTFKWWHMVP

This assay has as its target human PAD2 protein (human) (UniProt Q9Y2J8). The assay can be described thus: SPR (Biacore 8K), antibody captured on Protein A chip, human PAD2 as analyte, single-cycle, 1:1 model. For orientation: In SPR one partner is held on a chip, and binding of the other changes the refractive index at the surface.

Results are given in words; binding and its absence hold for the method and conditions named. Some binding calls cover weakened binding; strength is not graded here.

B1: CK1-14 (antibody, human IgG1, lambda, V domains shown)
VH: AVTLDESGGGLQTPGGALSLVCKASGFTFTRYAIQWVRQAPGKGLEWVGVINSGGRTLYAPAVKGRATISRDNGQSTVRLQLNNLRAEDTAIYYCVRGGYAYGIETWGHGTEVIVSS
VL: ALTQPSSVSANPGETVKITCSGSRYDYGWYQQKSPGSAPVTLIYYNNKRPSDIPSRFSGSKSGSTHTLTITGVQADDEAVYFCGSTDTSNDIFGAGTTLTVLG
In the case of B1, the binding entry is reported as “binds”.
